According to the supplement of paper PMC4635364:
Where a name gives a salt, the structure may show the parent alone. The list shows a part of the results. This data set is noisy: repeats of one test often differ as much as different tests do.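 Cells: ReNCell VM human fetal ventral-midbrain neural progenitors, differentiated mitogen-free. Blinded raters compared doublecortin-stained (early neurons) or tyrosine hydroxylase-stained (dopaminergic neurons) images with untreated wells, where 0 means no change. After repeats and both raters were averaged, compounds scoring 2 or above became hits for retesting.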

Tests used:
ReNCell VM [1] = experiment: neuronal differentiation score (DCX+ cell fraction vs untreated, manual image score) (score (-3 to 3)); higher = more neuronal differentiation; details: 2 uM, 2 weeks
ReNCell VM [2] = experiment: dopaminergic neuron differentiation score (TH+ cell fraction vs untreated, manual image score) (score (0 to 3)); higher = more TH+ dopaminergic neuron differentiation; details: 2 uM, 4 weeks, BDNF 10 ng/ml + GDNF 10 ng/ml

SMILES: C[C@H](CCC(=O)O)[C@H]1CC[C@H]2[C@@H]3C(=O)C[C@@H]4CC(=O)CC[C@]4(C)[C@H]3CC(=O)[C@]12C
- neuronal differentiation score (ReNCell VM [1]; library: Spectrum): inactive: 0
- dopaminergic neuron differentiation score (ReNCell VM [2]; library: Spectrum): inactive: 0

SMILES: O=C(O)CCCC[C@@H]1CCSS1
- neuronal differentiation score (ReNCell VM [1]; library: Spectrum): inactive: 0
- dopaminergic neuron differentiation score (ReNCell VM [2]; library: Spectrum): inactive: 0

SMILES: Nc1ccc(N2C(=O)c3ccccc3C2=O)c(Cl)c1 [N-(4-Amino-2-chlorophenyl)phthalimide]
- neuronal differentiation score (ReNCell VM [1]; library: LOPAC): inactive: 0
- dopaminergic neuron differentiation score (ReNCell VM [2]; library: LOPAC): inactive: 0

SMILES: O=c1c2ccccc2nc2n1CCc1c-2[nH]c2ccccc12 [rutaecarpine]
- neuronal differentiation score (ReNCell VM [1]; library: Natural): inactive: 0
- dopaminergic neuron differentiation score (ReNCell VM [2]; library: Natural): inactive: 0

SMILES: COc1cc(C[C@H]2C(=O)OC[C@@H]2Cc2ccc(OC)c(OC)c2)ccc1O [Arctigenin]
- neuronal differentiation score (ReNCell VM [1]; library: Tocriscreen): inactive: 0
- dopaminergic neuron differentiation score (ReNCell VM [2]; library: Tocriscreen): inactive: 0

SMILES: CC1(C)CCC(C)(C)c2cc(C3(c4ccc(C(=O)O)cc4)OCCO3)ccc21
- neuronal differentiation score (ReNCell VM [1]; library: Tocriscreen): inactive: 0
- dopaminergic neuron differentiation score (ReNCell VM [2]; library: Tocriscreen): inactive: 0

SMILES: C=CCOC(Cn1ccnc1)c1ccc(Cl)cc1Cl (stereo not drawn)
- neuronal differentiation score (ReNCell VM [1]; library: Spectrum): inactive: 0
- dopaminergic neuron differentiation score (ReNCell VM [2]; library: Spectrum): inactive: 0

SMILES: C[C@]12C=CC(=O)N[C@@H]1CC[C@@H]1[C@@H]2CC[C@]2(C)[C@@H](C(=O)Nc3cc(C(F)(F)F)ccc3C(F)(F)F)CC[C@@H]12
- neuronal differentiation score (ReNCell VM [1]; library: Spectrum): inactive: 0
- dopaminergic neuron differentiation score (ReNCell VM [2]; library: Spectrum): inactive: 0

SMILES: CC(=O)[C@@]1(O)CC[C@H]2[C@@H]3C=C(Cl)C4=CC(=O)[C@@H]5C[C@@H]5[C@]4(C)[C@H]3CC[C@@]21C
- neuronal differentiation score (ReNCell VM [1]; library: Spectrum): inactive: 0
- dopaminergic neuron differentiation score (ReNCell VM [2]; library: Spectrum): inactive: 0

SMILES: CCN(CCCc1ccccc1)CCCc1ccccc1
- neuronal differentiation score (ReNCell VM [1]; library: Spectrum): inactive: 0
- dopaminergic neuron differentiation score (ReNCell VM [2]; library: Spectrum): inactive: 0

SMILES: CN(CC[C@@H](Oc1ccc(C(F)(F)F)cc1)c1ccccc1)CC(=O)[O-].[Li+]
- neuronal differentiation score (ReNCell VM [1]; library: LOPAC): inactive: 1
- dopaminergic neuron differentiation score (ReNCell VM [2]; library: LOPAC): inactive: 1

SMILES: CC(=O)O[C@@H]1CC2C(C)(C)[C@H](O)C=C[C@]2(C)C2CC[C@@]3(C)[C@H](c4ccoc4)OC(=O)C4OC43[C@@]21C (stereo partly drawn)
- neuronal differentiation score (ReNCell VM [1]; library: Spectrum): inactive: 0
- dopaminergic neuron differentiation score (ReNCell VM [2]; library: Spectrum): inactive: 0

SMILES: Nc1ccccc1S(N)(=O)=O
- neuronal differentiation score (ReNCell VM [1]; library: Spectrum): inactive: 0
- dopaminergic neuron differentiation score (ReNCell VM [2]; library: Spectrum): inactive: 0

SMILES: COc1ccc(CCN(C)CCCN2CCc3cc(OC)c(OC)cc3CC2=O)cc1OC [Zatebradine hydrochloride]
- neuronal differentiation score (ReNCell VM [1]; library: Tocriscreen): inactive: 0
- dopaminergic neuron differentiation score (ReNCell VM [2]; library: Tocriscreen): inactive: 0

SMILES: CC1=C(/C=C/C(C)=C/C=C/C(C)=C/C(=O)Nc2ccc(O)cc2)C(C)(C)CCC1 [Retinoic acid p-hydroxyanilide]
- neuronal differentiation score (ReNCell VM [1]; library: LOPAC): inactive: 0
- dopaminergic neuron differentiation score (ReNCell VM [2]; library: LOPAC): inactive: 0

SMILES: O=C(O)c1cccc(O)c1O
- neuronal differentiation score (ReNCell VM [1]; library: Spectrum): inactive: 0
- dopaminergic neuron differentiation score (ReNCell VM [2]; library: Spectrum): inactive: 0

SMILES: Nc1[nH]cnc2ncnc1-2
- neuronal differentiation score (ReNCell VM [1]; library: Spectrum): inactive: -1
- dopaminergic neuron differentiation score (ReNCell VM [2]; library: Spectrum): inactive: 0

SMILES: COC(=O)C1=CO[C@@H](C)[C@H]2CN3CCc4c([nH]c5ccccc45)[C@@H]3C[C@H]12 [Ajmalicine hydrochloride]
- neuronal differentiation score (ReNCell VM [1]; library: Phytochemical): inactive: 0
- dopaminergic neuron differentiation score (ReNCell VM [2]; library: Phytochemical): inactive: 0

SMILES: CN(C)[C@@H]1C(O)=C(C(N)=O)C(=O)[C@@]2(O)C(O)=C3C(=O)c4c(O)cccc4[C@@](C)(O)[C@H]3[C@H](O)[C@@H]12
- neuronal differentiation score (ReNCell VM [1]; library: Spectrum): inactive: 0
- dopaminergic neuron differentiation score (ReNCell VM [2]; library: Spectrum): inactive: 0

SMILES: CC(=O)OC(C)C[N+](C)(C)C (stereo not drawn)
- neuronal differentiation score (ReNCell VM [1]; library: Spectrum): inactive: 0
- dopaminergic neuron differentiation score (ReNCell VM [2]; library: Spectrum): inactive: 0

SMILES: CCCCOC(=O)c1ccc(N)cc1
- neuronal differentiation score (ReNCell VM [1]; library: Spectrum): inactive: 1
- dopaminergic neuron differentiation score (ReNCell VM [2]; library: Spectrum): inactive: 0

SMILES: CC1=CC(=O)C(C(C)C)=CC1=O
- neuronal differentiation score (ReNCell VM [1]; library: Spectrum): inactive: 0
- dopaminergic neuron differentiation score (ReNCell VM [2]; library: Spectrum): inactive: 0

SMILES: Cc1ccnc2c1NC(=O)c1cccnc1N2C1CC1
- neuronal differentiation score (ReNCell VM [1]; library: Spectrum): inactive: 0
- dopaminergic neuron differentiation score (ReNCell VM [2]; library: Spectrum): inactive: 0

SMILES: OCc1ccccn1
- neuronal differentiation score (ReNCell VM [1]; library: Spectrum): inactive: 0
- dopaminergic neuron differentiation score (ReNCell VM [2]; library: Spectrum): inactive: 0

SMILES: CNC(=C[N+](=O)[O-])NCCSCc1csc(CN(C)C)n1
- neuronal differentiation score (ReNCell VM [1]; library: Spectrum): inactive: 0
- dopaminergic neuron differentiation score (ReNCell VM [2]; library: Spectrum): inactive: 0

SMILES: C[C@@H]1C(=O)NC2=Nc3cccc(Cl)c3CN21 [Quazinone]
- neuronal differentiation score (ReNCell VM [1]; library: LOPAC): inactive: 1
- dopaminergic neuron differentiation score (ReNCell VM [2]; library: LOPAC): inactive: 0

SMILES: CS(=O)(=O)c1ccc([C@@H](O)[C@@H](CO)NC(=O)C(Cl)Cl)cc1 [Thiamphenicol]
- neuronal differentiation score (ReNCell VM [1]; library: Prestwick): inactive: 0
- dopaminergic neuron differentiation score (ReNCell VM [2]; library: Prestwick): inactive: 0

SMILES: O=c1[nH]c(=O)c2nc3ccccc3nc2[nH]1 [Alloxazine]
- neuronal differentiation score (ReNCell VM [1]; library: LOPAC): active: 2
- dopaminergic neuron differentiation score (ReNCell VM [2]; library: LOPAC): inactive: 0

SMILES: O=c1cc[nH]c(=O)[nH]1
- neuronal differentiation score (ReNCell VM [1]; library: Spectrum): inactive: 0
- dopaminergic neuron differentiation score (ReNCell VM [2]; library: Spectrum): inactive: 0

SMILES: CC(C)OC(=O)CCC/C=C\C[C@@H]1[C@@H](/C=C/[C@@H](O)COc2cccc(C(F)(F)F)c2)[C@H](O)C[C@@H]1O
- neuronal differentiation score (ReNCell VM [1]; library: Spectrum): inactive: 1
- dopaminergic neuron differentiation score (ReNCell VM [2]; library: Spectrum): inactive: 0

SMILES: Clc1ccccc1CN1CCc2sccc2C1 [Ticlopidine hydrochloride]
- neuronal differentiation score (ReNCell VM [1]; library: Prestwick): inactive: 0
- dopaminergic neuron differentiation score (ReNCell VM [2]; library: Prestwick): inactive: 0

SMILES: Nc1ccc(S(=O)(=O)Nc2cnc3ccccc3n2)cc1
- neuronal differentiation score (ReNCell VM [1]; library: Spectrum): inactive: 0
- dopaminergic neuron differentiation score (ReNCell VM [2]; library: Spectrum): inactive: 0

SMILES: C=CC(C)(O)CCC=C(C)CCC=C(C)C (mixture of isomers)
- neuronal differentiation score (ReNCell VM [1]; library: Spectrum): inactive: 0
- dopaminergic neuron differentiation score (ReNCell VM [2]; library: Spectrum): inactive: 0

SMILES: COC1=CC(=O)C=C(OC)C1=O
- neuronal differentiation score (ReNCell VM [1]; library: Spectrum): inactive: 0
- dopaminergic neuron differentiation score (ReNCell VM [2]; library: Spectrum): inactive: 0
